{"source": "paper PMC7541343", "key": {"HA-Smyd2b (zebrafish)": {"biological_target": "T1, HA-Smyd2b (zebrafish) (UniProt Q5RGL7)", "T1 sequence": "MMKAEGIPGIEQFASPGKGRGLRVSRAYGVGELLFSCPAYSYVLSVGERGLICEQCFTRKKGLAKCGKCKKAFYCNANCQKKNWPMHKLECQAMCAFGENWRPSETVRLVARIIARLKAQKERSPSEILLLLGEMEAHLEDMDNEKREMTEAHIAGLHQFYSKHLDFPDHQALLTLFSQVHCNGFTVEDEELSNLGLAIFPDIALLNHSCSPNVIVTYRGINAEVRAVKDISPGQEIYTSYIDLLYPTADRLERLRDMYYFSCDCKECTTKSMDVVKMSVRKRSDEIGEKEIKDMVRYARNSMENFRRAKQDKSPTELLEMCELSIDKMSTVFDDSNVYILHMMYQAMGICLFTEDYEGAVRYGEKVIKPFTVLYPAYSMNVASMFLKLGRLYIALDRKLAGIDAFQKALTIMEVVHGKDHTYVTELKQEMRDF", "assay": "co-IP; HEK 293T cells co-transfected, lysed 48 h later (50 mM Tris-HCl pH 7.5, 150 mM NaCl, 1% Triton X-100, 1 mM EDTA, 1 mM DTT); lysate diluted to 0.2% Triton X-100, incubated with anti-Myc/HA-affinity beads 4 h at 4°C; Stat3 detected with anti-Flag antibody by western blot"}, "Myc-Smyd2a (zebrafish)": {"biological_target": "T2, Myc-Smyd2a (zebrafish) (UniProt Q5BJI7)", "T2 sequence": "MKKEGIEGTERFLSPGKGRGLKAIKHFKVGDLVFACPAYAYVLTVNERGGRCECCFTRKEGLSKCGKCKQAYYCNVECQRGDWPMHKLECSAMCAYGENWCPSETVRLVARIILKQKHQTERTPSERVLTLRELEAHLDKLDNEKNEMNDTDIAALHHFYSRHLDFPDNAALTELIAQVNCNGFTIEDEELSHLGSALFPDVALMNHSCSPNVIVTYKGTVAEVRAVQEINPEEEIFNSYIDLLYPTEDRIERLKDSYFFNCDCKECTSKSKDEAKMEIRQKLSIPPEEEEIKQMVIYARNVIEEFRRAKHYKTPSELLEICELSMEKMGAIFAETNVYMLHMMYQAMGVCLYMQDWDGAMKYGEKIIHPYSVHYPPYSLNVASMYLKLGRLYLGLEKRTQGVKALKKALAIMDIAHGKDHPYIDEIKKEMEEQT", "assay": "co-IP; HEK 293T cells co-transfected, lysed 48 h later (50 mM Tris-HCl pH 7.5, 150 mM NaCl, 1% Triton X-100, 1 mM EDTA, 1 mM DTT); lysate diluted to 0.2% Triton X-100, incubated with anti-Myc/HA-affinity beads 4 h at 4°C; Stat3 detected with anti-Flag antibody by western blot"}}, "note": "These are yes or no findings as the source states them, for the method shown. Binding seen in cells or lysates may run through a third protein. Binding can be weak; no strength is given. Tags and fused reporters may be left off the sequences shown.", "data": [{"substance": "Flag-Stat3", "values": [{"measurement": "binding", "setting": "HA-Smyd2b (zebrafish)", "result": "binds"}, {"measurement": "binding", "setting": "Myc-Smyd2a (zebrafish)", "result": "binds"}]}]}
